This passage reports cell number change and AC50 results from PubChem BioAssay AID2685 (National Center for Advancing Translational Sciences (NCATS), 2010).

The experiment is described as follows: qHTS Assay for Lipid Storage Modulators in Drosophila S3 Cells.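 On cell number change: cells counted by Cell Tracker Red CMTPX staining in the red channel.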 The following applies: BODIPY lipid droplet fluorescence, 18-24 h; for cell number change: measured here: cell count max response, cells fed with added oleic acid. An outline of the steps: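 Drosophila S3 cells got compounds at several concentrations plus oleic acid (400 uM solution). Laser-scanning cytometry with 488 nm excitation read lipid droplets at 500-530 nm and cells at 575-640 nm. Percent activity was relative to 20 uM Triacsin C.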

[1] abbreviates: measured here: cell number channel AC50, cells fed with added oleic acid.
Setting [2] is: measured here: lipid fluorescence (Fed channel) AC50, cells fed with added oleic acid.

Usually AC50 stands for the midpoint of the concentration-response curve, whichever way the signal moves. The low end stands for greater potency, the high end for weaker potency.

Molecules are shown by their SMILES. Values joined by “and” are separate entries in the source; they are usually repeats but may differ in a detail not shown here. Equal values may be shown once. This is one part of the list. Shown are side measurements of this screen, not its main read-out; they come without a call. Compounds called inactive in the main read-out are mostly missing here. The note in brackets gives the kind of curve behind each potency; many fits are weak. Where a SMILES comes first, the peptide text is derived from it. [ ]: non-standard residue; d: D form. The star is where a group is joined. ξ: configuration not given here. ξY = NC(Cc1ccc(O)cc1)C(=O)O; Cbz = O=C(OCc1ccccc1)*; OtBu = CC(C)(C)O*; tBu = CC(C)(C)*

As to `O=C(NCc1cccnc1)c1ccc(-c2cc3ccccc3oc2=O)cc1`, the cell number change is 6.46%. For the same molecule, under setting [1], the AC50 was 6.51 µM [falling, single point].

`C=CCn1c(COc2ccccc2F)nnc1SCC(=O)Nc1cc2oc3ccccc3c2cc1OC`: the cell number change amounted to 41.6%. The AC50 under setting [1] was 13 µM [rising, partial curve].

As to `N=C1SCC(=O)N1c1ncc(Cc2cccc(Cl)c2)s1`, the cell number change is -45.6%. Moreover, the AC50 under setting [1] is 29.1 µM [falling, single point]. Also, the half-maximal activity concentration (AC50) under setting [2] is 23.1 µM [falling, single point].

For `CCNC(=S)N/N=C(\C)c1ccc2ccccc2c1OC(F)F`, the cell number change amounted to 31.4%. Further, the AC50 under setting [1] was 0.366 µM [rising, full curve, poor fit].

As for `CCOc1ccccc1CNc1nc2ccccc2n1C`, the cell number change is -8.73%. Under setting [2], the AC50 is 0.116 µM [rising, full curve, poor fit].

For the molecule `Cc1cccc(-n2cnc(C(=O)Nc3cccnc3)c2)n1`, the cell number change came to 24.2%. Further, under setting [2], the AC50 is 8.2 µM [rising, partial curve, poor fit].

Turning to `C/C(CC(=O)Nc1ccc(Cl)cc1Cl)=N\NC(=O)C(=O)NCCO`, the cell number change is 29.2%. In addition, under setting [2], the half-maximal activity concentration (AC50) is 23.1 µM [rising, single point].

With `c1ccc(-c2ccc(C(c3ccccc3)n3ccnc3)cc2)cc1` (configuration not stated), the cell number change was -50.4% and -72%. Moreover, the AC50 under setting [1] is 23.1 µM [falling, partial curve]. Also, under setting [2], the AC50 is 29.1 µM [falling, single point] and 25.9 µM [falling, partial curve].

With `Oc1c(Cl)cc(Cl)c2cccnc12`, the cell number change was -41.8%. In addition, the AC50 under setting [1] is 18.4 µM [falling, partial curve, poor fit]. Also, under setting [2], the AC50 is 18.4 µM [falling, partial curve, poor fit].

As to `Cc1c2c(nc3nnnn13)CCCC2`, the cell number change was 5.58%.

Turning to `CN(C)S(=O)(=O)n1cnc([C@H]2c3c(ncn3Cc3ccccc3)C[C@H]3COC(=O)[C@@H]32)c1`, the cell number change worked out at 21.5%. Under setting [2], the AC50 is 0.0058 µM [rising, full curve, poor fit].

On to `Cc1cc(S(=O)(=O)N2CCN(CC(=O)NCCc3cccs3)CC2)ccc1Br`, for which the AC50 under setting [2] was 7.31 µM [falling, partial curve].

Turning to `O=C(NCc1ccccc1)C12CC3CC(CC(Br)(C3)C1)C2`, the cell number change is 15.8%. For the same molecule, under setting [2], the half-maximal activity concentration (AC50) was 6.51 µM [falling, single point].

Take `O=C1c2ccccc2C(=O)N1c1ncccn1`: the cell number change is -36.6%. Moreover, the concentration at half-maximal activity (AC50) under setting [1] was 0.731 µM [falling, full curve, poor fit]. The AC50 under setting [2] is 5.8 µM [falling, full curve].

On to `Cc1ccc(N(C(=O)Cn2nnc(-c3ccccc3)n2)C(C(=O)NC2CCCCC2)c2ccccn2)cc1C` (configuration not stated), for which the cell number change was -13.5%. Also, the half-maximal activity concentration (AC50) under setting [1] was 0.411 µM [falling, partial curve, poor fit]. Moreover, under setting [2], the concentration at half-maximal activity (AC50) was 0.517 µM [falling, partial curve].

As for `CCOC(=O)c1c(NC(=O)COc2ccccc2)sc2c1CC(C)(C)NC2(C)C`, the cell number change is -29.4%. Also, the AC50 under setting [2] is 0.00517 µM [falling, full curve, poor fit].

As to `COc1ccc(S(=O)(=O)N2CCC(N3CCCCC3)CC2)cc1`, under setting [2], the half-maximal activity concentration (AC50) is 6.51 µM [falling, single point].

As for `CC(=O)N1c2ccc(S(=O)(=O)N3CCCC3C(=O)Nc3ccc(C)cc3)cc2CC1C` (configuration not stated), the cell number change stood at 3.75%. In addition, under setting [2], the AC50 was 11.6 µM [rising, partial curve].

Regarding `CC(C)CCSc1nc(N2CCOCC2)c2c(c1C#N)CC(C)(C)OC2`, the cell number change was -1.68%. Under setting [2], the AC50 is 6.51 µM [falling, single point].

Regarding `CC(C)(C)OC(=O)C(Cc1ccc(OC(C)(C)C)cc1)NC(=O)CNC(=O)OCc1ccccc1` (stereo not drawn) (Cbz-Gly-[ξY](tBu)-OtBu), the cell number change was -2.57%. The AC50 under setting [1] was 1.64 µM [falling, partial curve, poor fit]. Also, the AC50 under setting [2] was 1.84 µM [falling, partial curve, poor fit].

With `CCc1ccc(NC(=O)CN2CCCN(S(=O)(=O)c3ccc(F)cc3)CC2)cc1`, the cell number change was determined as 20.3%. Also, the half-maximal activity concentration (AC50) under setting [2] was 29.1 µM [falling, single point].

`O=C(OC1CCN(c2ncc(C(F)(F)F)cc2Cl)CC1)c1cccc(C(F)(F)F)c1`: the cell number change is -7.43%. Moreover, the AC50 under setting [2] was 3.66 µM [falling, single point].

In the case of `CC(NC(=O)/C(C#N)=C/c1ccc(Cl)c([N+](=O)[O-])c1)c1ccccc1` (configuration not stated), the cell number change was -31.1%. In addition, the AC50 under setting [1] was 0.651 µM [falling, full curve, poor fit]. Further, the half-maximal activity concentration (AC50) under setting [2] was 5.8 µM [falling, partial curve].

On to `COc1cc2c(cc1O)CC[n+]1cc3c(OC)c(OC)ccc3cc1-2`, for which the cell number change was -17.3%. Also, under setting [2], the AC50 is 4.61 µM [falling, full curve, poor fit].

Turning to `Cc1ccc(NC(=O)CSc2nc3ccccc3c(=O)n2CC2CCCO2)cc1` (configuration not stated), the cell number change is 26.8%. For the same molecule, under setting [2], the half-maximal activity concentration (AC50) is 29.1 µM [rising, single point].

Turning to `COc1ccc([C@H]2CC(=O)C=C(c3ccc(F)cc3OCc3ccccc3)C2)cc1`, the cell number change is -0.906%. Further, the half-maximal activity concentration (AC50) under setting [1] was 1.16 µM [falling, single point]. Under setting [2], the AC50 was 1.16 µM [falling, single point].

Consider `COc1ccccc1NS(=O)(=O)c1cccc(C(=O)N(C)Cc2cccs2)c1`, for which the cell number change was found to be 30.3%.

For `Cc1ccsc1C(=O)Nc1ccc(O)c(-c2nc3ccccc3s2)c1`, the cell number change was found to be 19.8%. Besides, the AC50 under setting [1] is 0.82 µM [falling, single point].

Turning to `Cc1sc2nc(C3CC3)nc(NCCNS(C)(=O)=O)c2c1C`, the cell number change is -6.03%. In addition, the AC50 under setting [2] is 0.116 µM [rising, full curve, poor fit].

Take `O=C(NCc1ccc(Cl)cc1)c1cc(=O)[nH]c2ccccc12`: the cell number change came to 27.6%. The AC50 under setting [1] was 0.0517 µM [rising, full curve, poor fit]. Besides, the concentration at half-maximal activity (AC50) under setting [2] is 29.1 µM [rising, single point].

For `Cc1cc(C)c2oc(C(=O)NCCc3ccc(S(N)(=O)=O)cc3)cc(=O)c2c1`, the concentration at half-maximal activity (AC50) under setting [2] was 18.4 µM [rising, single point].

For the molecule `Cc1cccc(NC(=O)CCOc2ccccc2)c1`, the cell number change is -48.6%. The AC50 under setting [1] is 0.82 µM [falling, full curve]. The AC50 under setting [2] was 0.411 µM [rising, full curve, poor fit].

As for `Cc1ccc(NC(=O)C2CCCN(C(=O)NCc3ccccc3)C2)c(C)c1` (configuration not stated), the cell number change came to 24.6%.

For `CCOc1ccc(NC(=O)/C(C#N)=C/c2cn(CC(=O)O)c3ccccc23)cc1`, the cell number change was -33%. The half-maximal activity concentration (AC50) under setting [1] is 2.31 µM [falling, full curve, poor fit].
